The target in one assay is T1, HA-tagged MAGI3 (UniProt Q5TCQ9).
T1 sequence: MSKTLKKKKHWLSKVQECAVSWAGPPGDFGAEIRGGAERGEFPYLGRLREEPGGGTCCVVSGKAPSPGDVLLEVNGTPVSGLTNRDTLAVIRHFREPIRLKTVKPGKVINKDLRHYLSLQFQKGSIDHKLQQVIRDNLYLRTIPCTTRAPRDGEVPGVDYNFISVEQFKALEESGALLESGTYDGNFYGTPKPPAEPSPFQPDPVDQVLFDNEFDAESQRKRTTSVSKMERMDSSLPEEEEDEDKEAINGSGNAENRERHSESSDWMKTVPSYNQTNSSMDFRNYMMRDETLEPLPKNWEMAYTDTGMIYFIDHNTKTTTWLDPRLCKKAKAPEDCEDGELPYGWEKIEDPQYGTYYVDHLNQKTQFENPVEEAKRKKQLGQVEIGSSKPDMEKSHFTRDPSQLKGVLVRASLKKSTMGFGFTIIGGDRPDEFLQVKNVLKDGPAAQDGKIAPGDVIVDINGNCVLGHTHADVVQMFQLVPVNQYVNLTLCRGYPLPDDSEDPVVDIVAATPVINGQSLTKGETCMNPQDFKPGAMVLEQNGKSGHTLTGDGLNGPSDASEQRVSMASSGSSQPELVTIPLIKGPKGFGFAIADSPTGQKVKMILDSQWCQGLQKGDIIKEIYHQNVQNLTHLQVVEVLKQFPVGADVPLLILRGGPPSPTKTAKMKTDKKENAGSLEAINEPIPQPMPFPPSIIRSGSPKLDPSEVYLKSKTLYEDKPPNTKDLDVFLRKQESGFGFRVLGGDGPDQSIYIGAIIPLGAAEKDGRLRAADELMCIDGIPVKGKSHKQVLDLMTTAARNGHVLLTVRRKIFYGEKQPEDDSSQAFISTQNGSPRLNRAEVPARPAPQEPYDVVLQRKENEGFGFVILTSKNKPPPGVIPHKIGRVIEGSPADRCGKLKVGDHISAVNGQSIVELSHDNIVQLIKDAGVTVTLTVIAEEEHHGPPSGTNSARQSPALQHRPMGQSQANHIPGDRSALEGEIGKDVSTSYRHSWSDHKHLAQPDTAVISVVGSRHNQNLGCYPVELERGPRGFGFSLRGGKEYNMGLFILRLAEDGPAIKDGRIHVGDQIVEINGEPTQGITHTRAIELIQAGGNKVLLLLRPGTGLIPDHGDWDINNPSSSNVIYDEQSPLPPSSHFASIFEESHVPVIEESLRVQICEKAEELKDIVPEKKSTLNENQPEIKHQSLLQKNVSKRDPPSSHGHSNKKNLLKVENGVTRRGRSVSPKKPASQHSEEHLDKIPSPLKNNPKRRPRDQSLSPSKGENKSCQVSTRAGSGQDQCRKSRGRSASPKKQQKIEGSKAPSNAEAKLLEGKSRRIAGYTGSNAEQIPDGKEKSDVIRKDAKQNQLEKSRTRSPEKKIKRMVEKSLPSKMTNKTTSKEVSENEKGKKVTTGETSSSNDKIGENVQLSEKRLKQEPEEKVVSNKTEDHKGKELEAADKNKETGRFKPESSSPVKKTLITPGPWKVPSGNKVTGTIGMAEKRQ
Briefly: co-IP; co-IP in the reverse order of a1; 293T cells with Flag-tagged WT or S415A c-Myc and HA-tagged MAGI3, with or without OGT overexpression.

Protein sequences, listed by entry. Tags and fused reporters are not part of them. Lines headed by an entry give the natural chain unless they say otherwise; changes in a name come on top. Chains listed by the source or under a name are the forms on record and can include a tag or linker. Residues count along the entry.
shRNA-resistant Flag-tagged WT c-Myc reconstituted in HT-29 cells (P01106, residues 16-454): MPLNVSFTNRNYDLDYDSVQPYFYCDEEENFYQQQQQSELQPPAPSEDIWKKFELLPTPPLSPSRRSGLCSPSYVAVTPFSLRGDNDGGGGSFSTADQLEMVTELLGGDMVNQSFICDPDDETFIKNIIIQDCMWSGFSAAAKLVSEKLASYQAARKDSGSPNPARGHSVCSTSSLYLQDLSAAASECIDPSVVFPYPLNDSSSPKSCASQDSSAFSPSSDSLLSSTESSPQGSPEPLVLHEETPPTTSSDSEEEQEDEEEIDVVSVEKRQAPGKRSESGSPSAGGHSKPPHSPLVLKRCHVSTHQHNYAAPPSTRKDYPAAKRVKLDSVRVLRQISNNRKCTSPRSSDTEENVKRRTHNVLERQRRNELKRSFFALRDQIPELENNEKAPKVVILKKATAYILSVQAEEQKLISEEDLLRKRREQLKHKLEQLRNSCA
shRNA-resistant Flag-tagged S415A c-Myc reconstituted in HT-29 cells (P01106-1, form named): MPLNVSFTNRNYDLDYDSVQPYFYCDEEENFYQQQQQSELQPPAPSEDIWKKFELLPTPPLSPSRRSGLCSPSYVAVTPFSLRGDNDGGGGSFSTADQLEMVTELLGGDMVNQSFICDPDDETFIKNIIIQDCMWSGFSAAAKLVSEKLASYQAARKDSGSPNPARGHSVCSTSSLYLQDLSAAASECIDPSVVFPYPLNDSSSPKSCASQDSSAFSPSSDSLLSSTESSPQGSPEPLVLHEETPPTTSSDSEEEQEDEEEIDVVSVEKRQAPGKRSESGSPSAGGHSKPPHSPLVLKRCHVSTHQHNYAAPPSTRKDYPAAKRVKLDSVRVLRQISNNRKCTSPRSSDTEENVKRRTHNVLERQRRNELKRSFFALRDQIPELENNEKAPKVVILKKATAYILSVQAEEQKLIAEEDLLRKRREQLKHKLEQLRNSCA

The target of another assay is Flag-tagged WT c-Myc (UniProt P01106). As to the kind of experiment: co-IP; 293T cells ectopically expressing Flag-tagged WT or S415A c-Myc and HA-tagged MAGI3, with or without OGT overexpression; immunoblot. (Immunoblotting shows a protein as a band on a membrane.)
A further assay addresses Flag-tagged S415A c-Myc (UniProt P01106). The description is as above.
Assay [1] deals with shRNA-resistant Flag-tagged S415A c-Myc reconstituted in HT-29 cells (UniProt P01106). Briefly: co-IP; HT-29 cells reconstituted with WT or S415A c-Myc; endogenous MAGI3; with or without TMG treatment; immunoblot.
The target of assay [2] is shRNA-resistant Flag-tagged WT c-Myc reconstituted in HT-29 cells (UniProt P01106). Described as above.

Results are given in words; binding and its absence hold for the method and conditions named. In cells and extracts the contact can be indirect. Some binding calls cover weakened binding; strength is not graded here. For part of these data: Tags and fused reporters may be left off the sequences shown.

“Flag-tagged S415A c-Myc (from UniProt P01106-1 1-439)”: the binding entry with HA-tagged MAGI3 is “binds”. Take “Flag-tagged WT c-Myc (from UniProt P01106-1 1-439)”: in the assay with HA-tagged MAGI3, the binding entry is recorded as “binds”.

B1: HA-tagged MAGI3 (protein, UniProt Q5TCQ9 1-1481)
chain: T1 sequence
Consider B1, for which the binding entry with Flag-tagged WT c-Myc and with Flag-tagged S415A c-Myc was “binds” in each case.

B2: endogenous MAGI3 (protein, UniProt Q5TCQ9 1-1481)
chain: T1 sequence
In the case of B2, the binding entry in assay [1] and in assay [2] was “binds” each time.
